# Assay results as given in patent US20160088853A1, “Ultraviolet Disinfection of Produce, Liquids and Surfaces” (DREXEL UNIVERSITY, priority 2013, published 2016).
# Experimental: In this example, fluorescein dye was used to detect the presence of free radicals, since interactions of oxidizing free radicals with fluorescein quench the fluorescence signal intensity. A fluorescein dye solution (4 μg/L) containing 0.4% (w/v) fructose and a fluorescein dye solution (4 μg/L) without fructose (control) were exposed to UV radiation at wavelength of 254 nm.
# A batch-UV processing unit (Spectronics Spectrolinker XL-1500 UV Crosslinker, Westbury, N.Y.) was used for Examples 5-10. […] Fluorescence intensity measurement noise was minimized by allowing the lamps to warm up for at least 15 minutes prior to taking measurements.
# The test fluorescein solution with approximately 1 μM fluorescein was prepared in deionized water (pH 6.3) or 100 mM buffer at pH 6. […] To measure the fluorescence intensity of the solution, at each time interval, 100 μl of the sample was pipetted from the petri dish into a well of a 96-well plate optimized for fluorescence measurement. Fluorescence was measured in a Gemini XPS fluorescence micro-plate reader (Molecular Devices, Sunnyvale, Calif.) with excitation and emission wavelengths of 485 nm and 510 nm, respectively. All the fluorescence values were normalized using Eq. (1):
# where I0=fluorescence intensity at time t=0 minutes and It=fluorescence intensity after ‘t’ minutes of UV exposure.
Structure (SMILES),"relative oxidation potential compared to hydrogen peroxide (100 mM fructose vs 294 μM hydrogen peroxide, AUC and molarity, UV)","effect on relative fluorescence intensity (132 μM furan, 12 minutes of UV exposure)"
O=C(CO)[C@@H](O)[C@H](O)[C@H](O)CO [fructose],approximately 0.0025,–
"c1ccoc1 [furan, reference compound]",–,no effect
